In article PMC8673669:
Construct, isoform or probe ends are uncertain for at least one entry. A negative result means that nothing was seen under these conditions. Where a protein sequence is shown, tags need not be part of it.

What follows are sequences tested against T1, SmFTZ-F1 (Schistosoma mansoni) (UniProt A0A5K4F6G6) (assay: EMSA). Conditions: LightShift Chemiluminescent EMSA kit per manufacturer, 20 uL reactions, PURExpress IVT protein, 20- or 200-fold unlabeled competitor; protein translated in vitro.
T1 sequence (looked up, limits assumed): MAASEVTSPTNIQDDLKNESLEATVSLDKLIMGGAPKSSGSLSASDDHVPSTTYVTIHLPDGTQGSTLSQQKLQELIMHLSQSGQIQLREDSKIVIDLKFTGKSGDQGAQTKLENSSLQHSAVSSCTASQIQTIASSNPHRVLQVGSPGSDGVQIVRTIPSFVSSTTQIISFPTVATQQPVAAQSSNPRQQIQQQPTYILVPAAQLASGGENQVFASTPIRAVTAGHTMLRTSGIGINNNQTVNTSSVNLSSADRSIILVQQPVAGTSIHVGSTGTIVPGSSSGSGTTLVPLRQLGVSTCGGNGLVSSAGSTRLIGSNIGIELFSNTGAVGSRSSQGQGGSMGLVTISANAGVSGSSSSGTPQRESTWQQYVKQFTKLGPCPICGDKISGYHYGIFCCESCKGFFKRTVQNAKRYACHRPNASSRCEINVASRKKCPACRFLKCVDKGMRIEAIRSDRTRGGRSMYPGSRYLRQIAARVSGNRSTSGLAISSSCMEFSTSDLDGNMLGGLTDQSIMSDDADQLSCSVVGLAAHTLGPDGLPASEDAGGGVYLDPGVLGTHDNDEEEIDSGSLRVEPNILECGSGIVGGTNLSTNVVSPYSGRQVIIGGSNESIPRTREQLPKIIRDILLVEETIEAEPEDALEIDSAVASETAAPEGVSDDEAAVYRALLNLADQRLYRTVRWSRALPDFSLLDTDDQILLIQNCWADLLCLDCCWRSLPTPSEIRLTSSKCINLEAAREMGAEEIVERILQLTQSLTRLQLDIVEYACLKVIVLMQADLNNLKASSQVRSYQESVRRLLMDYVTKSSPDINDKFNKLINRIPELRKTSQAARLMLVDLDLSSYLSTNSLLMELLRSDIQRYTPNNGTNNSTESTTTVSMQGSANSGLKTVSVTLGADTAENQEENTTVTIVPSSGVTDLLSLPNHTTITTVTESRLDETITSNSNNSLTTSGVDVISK

Row | Sequence | binding result
1 | AAAATAATGAGCAAGGTAATGCATATTTC (double strand) [NS competitor (Smp_075350 RE)] | no binding

Same assay, conditions: LightShift Chemiluminescent EMSA kit per manufacturer, 20 uL reactions, PURExpress IVT protein, 20- or 200-fold unlabeled competitor; protein translated in vitro; label: biotin 3' end, both strands

Row | Sequence | binding result
2 | AACCAATTTCAAGGTCAGAATCTTTA (double strand) [Smp_344050 RE] | binds
3 | AACCGAACTATGAAGGTCCATTTAGA (double strand) [Smp_042670 RE] | no binding
4 | AAGGACACGTGAAGGTTATAATTAGGA (double strand) [Smp_331380 (meg-8.3) RE #1] | binds
5 | AATAACAGGCTTTTTAAGGTCAGAGCAGGTGTTA (double strand) [Smp_315490 RE #2] | no binding
6 | AATGTTTTCCAAGGTCATTGAATGTT (double strand) [Smp_332390 RE] | binds
7 | ACAAGCAAGGGGAAGGTTGACATCATTTA (double strand) [Smp_042390 RE] | no binding
8 | ACACGGGCAGAGAAAGTCAAGGTACAAGAAGACTAC (double strand) [Smp_200180 RE #1] | no binding
9 | ACGGTAAGTGAAGGTTTCCCAATTAAGATG (double strand) [Smp_342050 RE #2] | no binding
10 | AGACTATTCTCAAGGTTAGAGAATCT (double strand) [Smp_058790 RE] | binds
11 | AGCTTCAGGTCAAGGTCAGAG (double strand) [DR01 RE] | binds
12 | AGTGATATCCAAGGTCATTTAAAG (double strand) [Smp_174060 RE #2] | binds
13 | AGTTATGCAAAGTTAAGGTCAAACCCATTACAC (double strand) [Smp_245720 RE #1] | no binding
14 | AGTTTTACATAAGGTTATGATAGTCAGCTTT (double strand) [Smp_245720 RE #4] | no binding
15 | ATGAGAATTCAAGGTAATCTAATTT (double strand) [Smp_003600 RE #1] | no binding
16 | ATTCTCTACAAGGTCAAGTACGG (double strand) [Smp_166290 RE #4] | binds
17 | ATTTCTTACCAAGGCCATAAAATAC (double strand) [Smp_174060 RE #1] | no binding
18 | CAACAAAAATTCAGAAGGTCAATGGAAGATGTG (double strand) [Smp_200180 RE #3] | no binding

Row | Sequence | binding result
19 | CACAAGTCATCTAGGTTTGATACAATGAGTGATC (double strand) [Smp_075350 RE #2] | no binding
20 | CAGTAAGTTGAAGGTTTTGAAATA (double strand) [Smp_315490 RE #3] | no binding
21 | CCTTTAAATCAAGGTTAAAACACCC (double strand) [Smp_319070 RE] | binds
22 | GATCCACCAAGGTCATGGCA (double strand) [SF-1 RE #1] | binds
23 | GCATAACTATCAAGGTGTATAATCTCTG (double strand) [Smp_245720 RE #2] | no binding
24 | GGTTGTCCCAAGGTCACCGAGTCAA (double strand) [FTZ-F1 RE #2 (D. melanogaster)] | binds
25 | GGTTGTCTCAAGGTCACCGAGTCAA (double strand) [FTZ-F1 RE #1 (D. melanogaster)] | binds
26 | GTAAACAAGGAAGGTTGAACATGAGGTCAGC (double strand) [Smp_003600 RE #3] | no binding
27 | GTCTGTCAAAAGAAGGTTGAGAAGATTGG (double strand) [Smp_245720 RE #3] | no binding
28 | TACCACAATCAAGGTGACGTTATTA (double strand) [Smp_315490 RE #1] | no binding
29 | TATCAAGACTCAAGGTATTTCAAAGCCCTT (double strand) [Smp_200180 RE #2] | no binding
30 | TCCAAATATCAAGGTAGGTCACTTA (double strand) [Smp_342050 RE #1] | no binding
31 | TGACACTGTGAAGGTCGTTTGATAT (double strand) [Smp_045490 RE] | no binding
32 | TGTCCAGGACAAGGTTAGATGGGGA (double strand) [Smp_207040 RE] | no binding
33 | TTGCATTTATAATAAGGTCAAAACTAT (double strand) [Smp_200180 RE #4] | no binding
34 | TTTACCGATTGAAGGTGACAGTGTAAGAG (double strand) [Smp_003600 RE #2] | no binding
35 | TTTTAATACCAAGGTTGGGCTTGAT (double strand) [Smp_204150 RE] | no binding
